Consider 1 sequence from PMC2093940.

By UniProt entry, the sequences of proteins in these tests, tags left out. Where a name states a change or a piece, a line headed by the entry shows the natural chain unless it says otherwise.
UniProt O75364: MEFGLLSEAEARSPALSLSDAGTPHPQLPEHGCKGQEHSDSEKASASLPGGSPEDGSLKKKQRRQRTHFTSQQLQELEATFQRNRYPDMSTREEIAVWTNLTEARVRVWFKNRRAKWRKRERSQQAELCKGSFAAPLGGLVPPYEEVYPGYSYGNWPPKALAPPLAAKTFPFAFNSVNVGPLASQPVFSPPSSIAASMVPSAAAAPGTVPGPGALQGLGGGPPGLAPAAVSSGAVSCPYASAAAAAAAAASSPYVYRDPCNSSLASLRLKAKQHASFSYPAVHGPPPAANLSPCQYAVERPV

The target of this series is PITX3 G219fs (Homo sapiens) (UniProt O75364). Nature of the series: EMSA. The note with it: poly[d(I-C)], monomer binding retained, two main low-mobility complexes absent; LightShift kit binding buffer (composition and pH not given), 50 ng/ul poly[d(I-C)], 20 fmol probe, RT 15 min (30 min with antibody), 5% PAGE in 1x TBE; protein in a lysate after overexpression; residues 1-218; protein details: C-terminal c-Myc and His vector, called myc-tagged; label: 3' biotin. In general terms: Mobility shift assays separate free from complexed probe on a gel.

Construct, isoform or probe ends are uncertain for at least one entry. Results from cells or extracts need not show a direct contact.

Consider “GATCCTAATCCCGTCGCGTCGTAATCCGGATC (double strand) [bicoid probe (Bcd 2x 10n)]”, for which the binding result is recorded as “binds”.
